From ChEMBL document CHEMBL3988442, “University of Dundee, Small-Polar-MMV Screening Library” (2021).

Protein sequences, listed by entry. Tags and fused reporters are not part of them.
UniProt E9BF75, entry or part of it: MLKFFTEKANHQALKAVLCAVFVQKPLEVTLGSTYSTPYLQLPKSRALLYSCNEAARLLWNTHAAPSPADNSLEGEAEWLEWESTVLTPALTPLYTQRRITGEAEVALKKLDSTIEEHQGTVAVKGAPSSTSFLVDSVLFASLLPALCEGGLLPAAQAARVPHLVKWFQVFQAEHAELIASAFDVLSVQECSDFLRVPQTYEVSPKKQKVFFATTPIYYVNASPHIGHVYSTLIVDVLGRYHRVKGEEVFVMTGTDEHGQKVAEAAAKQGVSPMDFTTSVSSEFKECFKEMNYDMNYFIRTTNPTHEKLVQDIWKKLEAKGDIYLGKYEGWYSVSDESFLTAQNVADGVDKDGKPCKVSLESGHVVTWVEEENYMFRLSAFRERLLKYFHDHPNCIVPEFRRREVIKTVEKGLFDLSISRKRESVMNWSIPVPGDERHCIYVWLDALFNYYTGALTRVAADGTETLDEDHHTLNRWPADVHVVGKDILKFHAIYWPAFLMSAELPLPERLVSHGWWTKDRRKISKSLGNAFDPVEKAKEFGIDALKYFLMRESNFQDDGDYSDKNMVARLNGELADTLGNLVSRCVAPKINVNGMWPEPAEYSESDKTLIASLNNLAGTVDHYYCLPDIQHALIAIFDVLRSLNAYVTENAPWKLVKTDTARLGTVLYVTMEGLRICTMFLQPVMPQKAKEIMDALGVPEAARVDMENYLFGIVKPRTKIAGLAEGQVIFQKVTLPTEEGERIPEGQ

Results are percentages, as filed. The record does not define 0% and 100%; most values in the screen are far below 50% and negative numbers occur (in some assays of this library far below -100). Compounds were drawn at random from those tested, without regard to their results.

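Methionyl-tRNA synthetase (putative), Leishmania donovani (UniProt E9BF75). Primary screen of methionyl-tRNA synthetase; the read-out is not stated. The test concentration is not given. The values are filed as inhibition. Size under these conditions: about 68,000 compounds, about 24 of them at 50% or above in at least one test.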

Compound | Inhibition
CC(CN1CCOCC1)NC(=O)N(C)Cc1ccc(Cl)s1 (configuration not stated) | 14.08
CN(Cc1ccc(Cl)c(F)c1)C(=O)CCc1ccncc1 | 2.821
Cc1cc(C)n(C2CCN(C(=O)c3cn4ccsc4n3)C2)n1 (configuration not stated) | 16.01
O=C(NCCOC1CCCCC1)c1ccc(-c2ccco2)[nH]c1=O | 5.828
Cc1ncsc1CN1C[C@H](NC(=O)C2CCOCC2)[C@@H](C(C)C)C1 | 8.657
CCc1cnc(C)nc1N1CCC(Cc2cccc(C(=O)O)c2)C1 (configuration not stated) | 21.14
Cc1ncnc2c1CCN(Cc1cccs1)CC2 | 4.603
COc1cc2c(cc1OC)CN(C(C(=O)O)c1c(C)nn(C)c1C)CC2 (configuration not stated) | 9.524
Cc1c[nH]nc1C1CCCN1Cc1nccn1C (configuration not stated) | 15.41
Cc1cc(N2CCN(c3nc4ccccc4cc3CO)CC2)nc(C)n1 | 9.091
Cc1cnccc1NCCNC(=O)C1CCCN(Cc2ccco2)C1 (configuration not stated) | 8.38
COc1ccc(F)c(CN2CCC(c3cc(O)nc(C)n3)C2)c1 (configuration not stated) | 9.247
CC(=O)N[C@@H]1CN(C(=O)c2cccc(C(F)(F)F)c2)C[C@H]1O | 8.14
CCCOCC(=O)N1CCCC(c2nnc(CN3CCCCC3)n2C)C1 (configuration not stated) | 5.495
CNS(=O)(=O)c1ccc(CNC(=O)c2cccc(C)n2)cc1 | 1.425
O=C(O)[C@]12CCCN(C3CCOC3)C[C@H]1CN(c1nncs1)C2 (some centres not stated) | 6.753
Cc1ncsc1CCN(C)C(=O)C(c1cccnc1)N1CCOCC1 (configuration not stated) | 14.34
Cc1cccc(CN2C[C@@H]3OCCN(c4cnccn4)[C@@H]3C2)n1 | 10.22
OCCN(Cc1ccccc1)Cc1ccsc1 | 7.107
CC(C)c1noc(C(C)N2CCN(Cc3ccccc3C#N)CC2)n1 (configuration not stated) | 11.81
CC(C)C(Sc1nncn1C1CC1)C(=O)NCc1cccnc1 (configuration not stated) | 16.81
Fc1cccc(-c2nc(CN3CCCC(Cn4cncn4)C3)co2)c1 (configuration not stated) | 6.627
Cc1cccc(-c2nc(C)nn2CN2CCN(c3ncccn3)CC2)c1 | 15.62
Cc1nccn1C1CCCN(C(=O)c2cc3ccccc3[nH]2)C1 (configuration not stated) | 4.225
O=C1CSCN1CC(=O)N1CCCC1c1nc2ccccc2s1 (configuration not stated) | 3.106
CCc1ncc(CN2CCN(CCOC)CC2)cn1 | 10.29
CCNc1ncc(C)c(-c2cnn(C)c2)n1 | 17.49
CCN1C[C@H]2C3(CCN(C(=O)NC(C)C)CC3)CC[C@@]2(C(=O)NC)C1 | 6.723
NCC(=O)N1CCC(c2cccc(Oc3ccccc3)n2)CC1 | 24.68
CS(=O)(=O)N1CCN(C(=O)c2ccco2)[C@H]2CS(=O)(=O)C[C@H]21 | 0.3226
COC(=O)C(NC(=O)CCc1ccco1)c1cc(F)ccc1F (configuration not stated) | 19.89
CC(=O)NC1CCCN(Cc2ccn(C)c(=O)c2)C1 (configuration not stated) | 12.72
Cn1nc(C(=O)NCc2ccccc2C(F)(F)F)c2c1CCS(=O)(=O)C2 | -4.271
CC(C)c1cc(NC(=O)CN2CCCC2Cn2cccn2)on1 (configuration not stated) | 14.17
CC(C)c1noc(CN(C)C(c2ccc(F)cc2)c2cccnc2)n1 (configuration not stated) | -2.899
CC(C)n1cnnc1Cn1c(=O)ccc2ccccc21 | 10.13
CCNC(=O)N1CC[C@H]2CC(=O)N(CCN3CCNC3=O)CC[C@H]2C1 | 12.64
CC1CCCN(C(=O)c2cc(-c3ccco3)cs2)C1 (configuration not stated) | 17
COCCN1CCCn2c(nc(CNS(C)(=O)=O)cc2=O)C1 | 15.84
c1cnnc(N2CCCC(NCc3nc(C4CC4)no3)C2)c1 (configuration not stated) | 20.47
COc1ccc(C(=O)Nc2c(C)nc3cccc(C)n3c2=O)cc1 | 12.83
CS(=O)(=O)NCCCNC(=O)NCc1ccccc1 | 9.456
CS(=O)(=O)c1snnc1C1CCN(Cc2ccc3nccnc3c2)CC1 | 7.91
Cc1ccc(CN2CCOC3(CCCN(c4cccc(F)c4)C3)C2)o1 (configuration not stated) | 19.23
COc1ccc(CN2CCc3nnc(COCCN(C)C)n3CC2)cc1 | 6.301
CC(C)c1noc(OCc2cccc(S(=O)(=O)N(C)C)c2)n1 | 14.85
CC(=O)c1ccc(N2CCN(C(=O)c3cnn4c3OCCC4)CC2)cc1 | 4.507
CO[C@H]1CN(c2ccccc2)S(=O)(=O)[C@@]12CCN(Cc1ccccc1)C2 | 2.466
O=C(CNC(=O)C1CCCC1)NCc1cnn(-c2ccc(F)cc2F)c1 | 12.53
Cc1ccc(S(=O)(=O)N2C[C@H]3C[C@H](NC(=O)c4cc(C)no4)[C@H]3C2)cc1 | 9.709
COC(=O)C1CCN(C(=O)c2cccc(NS(C)(=O)=O)c2C)CC1 | 8.027
Cn1nc(CNC(=O)C2CCCCC2)cc1C1CC1 | 2.817
c1ccc(CN2C[C@@H]3OCCN(c4cccnc4)[C@@H]3C2)nc1 | 13.65
CN(Cc1cc(Cl)cc2cccnc12)CC1CCN(CCO)CC1 | 3.014
CSc1ccc2c(C)cc(N[C@@H](C)CO)nc2c1 | 5.575
CC(C)(C)c1cc2ncn(CCCN3CCCCC3CO)c(=O)c2s1 (configuration not stated) | 12.83
O=C(COCCOc1ccccc1)NC1CCN(c2ncccn2)CC1 | 6.178
Cn1cc(NC(=O)CCCc2cccs2)c(=O)n(C)c1=O | 11.39
Cc1ccc2c(c1)C1(CC(=O)Nc3[nH]ncc31)C(=O)N2C (configuration not stated) | 8.746
Cc1c(C(=O)NCCCS(C)(=O)=O)cccc1-c1ccccn1 | 14.86
Cc1cccc(CNC(Cc2ccsc2)c2nc(C)c(C)s2)n1 (configuration not stated) | 25.32
O=C1[C@H]2CC[C@H](CN(Cc3ccccc3OC(F)F)C2)N1CC1CC1 | 13.41
Cc1cc(S(=O)(=O)NCC[S+](C)[O-])c(F)cc1F (configuration not stated) | 23.12
COc1ccc(C[C@H]2CNCC[C@@H]2OC)cc1 | 8.964
Cc1nc(N2CCCC2)nc(C)c1NS(C)(=O)=O | 7.194
Cc1ccc2oc(C(=O)N3CCCC(n4ccnc4C)C3)cc2n1 (configuration not stated) | 8.728
Cc1ccc(CC(=O)N2CCN(c3nccs3)CC2)s1 | 0.3067
NC(=O)C1CCN(C(=O)c2cc(Br)ccc2-n2cnnn2)CC1 | 6.233
CC(C)Oc1ccc(CN2CCCC(N3CCOCC3)C2)cc1CO (configuration not stated) | -1.075
Nc1ccc(-c2ccc(F)cc2Cl)cn1 | 12.33
CCN(Cc1ccccc1)c1ncnc2c(C)nn(CC)c12 | 15.92
CN(Cc1cccs1)C(=O)CN(C)C1CCc2ccccc21 (configuration not stated) | 8.011
CCc1cnccc1C(=O)NC1CCN(C(=O)OC)CC1 | 7.508
N#Cc1ccc(CC(=O)N2CCCC(n3cccn3)C2)cc1 (configuration not stated) | 6.529
CC(C)CC(CO)NS(=O)(=O)Cc1ccon1 (configuration not stated) | 18.32
CN(C)C(=O)CC1CC2(CCN(Cc3ccco3)CC2)c2ccccc21 (configuration not stated) | 15.27
O=C(Nc1nc(-c2ccccc2)ns1)N1CCN(C(=O)C2CC2)CC1 | 11.34
CCNC(=O)NC(=O)C(C)N(C)CCOc1ccccc1C (configuration not stated) | 18.1
O=c1[nH]c2cc(S(=O)(=O)N3CCC(c4ccsc4)CC3)ccc2o1 | 6.475
CS(=O)(=O)N1C[C@@H](F)[C@@H](OCc2nc3ccccc3o2)C1 | -3.729
CNC(=O)C(C)(C)NC(=O)c1cc(COc2ccccc2OC)[nH]n1 | 16.67
Cc1nc(NC(=O)NC2CC(=O)N(C)C2)nn1C(C)C (configuration not stated) | 17.58
OC(CN1CCN(c2ncccn2)CC1)c1cccc(F)c1 (configuration not stated) | 12.27
N#Cc1ccsc1N1CCC(Sc2ncc[nH]2)C1=O (configuration not stated) | 19.63
CNc1nccc(-c2cn(C)nc2C)n1 | 4.396
COc1cc(F)ccc1C(C(=O)O)N(C)Cc1ccon1 (configuration not stated) | 8.675
CNC(=O)[C@H]1C[C@@H]2CCN(Cc3ccncc3)C[C@H]2O1 | 4.11
NC(=O)C1CCN(C(=O)NCCOc2ccc3c(c2)OCO3)C1 (configuration not stated) | 12.5
O=S(=O)(Cc1ccc(F)cc1)NCc1ccco1 | 9.363
CC(CC(=O)N1CCCS1(=O)=O)c1ccccc1C(F)(F)F (configuration not stated) | 2.778
CCN1CCN(C(=O)C2CCCc3[nH]ncc32)CC1 (configuration not stated) | 19.85
CC(NCc1ccc(C(C)(C)C)cc1)c1ccc(S(C)(=O)=O)cc1 (configuration not stated) | 10.86